This passage reports binding results from PMC12394565.

Protein sequences, listed by entry. Tags and fused reporters are not part of them.
UniProt Q99497: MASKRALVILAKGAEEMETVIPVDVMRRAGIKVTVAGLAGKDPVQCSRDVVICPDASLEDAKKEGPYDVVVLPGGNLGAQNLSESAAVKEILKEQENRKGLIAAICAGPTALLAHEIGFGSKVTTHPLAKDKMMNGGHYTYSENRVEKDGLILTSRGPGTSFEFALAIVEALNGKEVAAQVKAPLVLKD
UniProt Q03135: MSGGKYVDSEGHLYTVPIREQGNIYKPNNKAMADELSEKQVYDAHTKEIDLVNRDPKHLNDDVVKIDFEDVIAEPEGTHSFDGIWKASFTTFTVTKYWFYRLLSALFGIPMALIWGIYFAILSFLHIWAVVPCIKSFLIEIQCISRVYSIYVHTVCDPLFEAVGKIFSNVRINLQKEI

For experiment [1], the target named is Parkinson disease 7 (DJ-1) (human (endogenous in HEK293, HT29, HCT116)) (UniProt Q99497). Description: co-IP; endogenous: HEK-293 and HT29 cell lysates immunoprecipitated with anti-DJ-1 or control IgG antibodies.
Experiment [2] has as its target Flag-tagged Caveolin-1 (UniProt Q03135). In words: co-IP; exogenous: HCT116 cells with FLAG-tagged CAV1 overexpression plasmid or empty vector; total FLAG-tagged CAV1 immunoprecipitated.

These are yes or no findings as the source states them, for the method shown. Binding seen in cells or lysates may run through a third protein. Some entries that bind do so weakly or less than the wild type.

For the substance “Caveolin-1 (endogenous) (from UniProt Q03135 1-178)”, the binding result in experiment [1] is “binds”.

Regarding “Parkinson disease 7 (DJ-1) (from UniProt Q99497 1-189)”, in experiment [2], the binding entry is listed as “binds”.
